In patent publication US10647725B2, “Anti-infective 2-aminothiophenes” (priority 2016, dated 2020):
Some of these results come from one statement about several compounds together. At least one structure is not confirmed: it was looked up by name or label, or the drawing left a doubt.

Tested on: Mtb H37Rv
Test: modified 96-well microplate Alamar blue assay (MABA), growth inhibition
Assay type: cell-based, Mycobacterium tuberculosis

**Q.** For `CCOC(=O)c1c(N)sc2c1CCCC2` [3{4,0,0}], which MIC is on record?
**A.** Its MIC is ≥ 200 µg/mL.
